Record: PubChem BioAssay AID1053208 (Peter MacCallum Cancer Centre, 2014)
This is one part, drawn at random, of about 17,000 reagents tested. 788 of all reagents (4.7%) were called active. 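Calls rest on z-score classes alone; an extra cut-off of viability at most 70% of control was not applied to them.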 Entries without a mark were called inactive. The numbers tell different reagents against one gene apart. Not all columns of the deposit are shown.

- Screen: 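Genes whose silencing cuts survival of bone tumour cells only with doxorubicin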 (primary screen)
- Cells: mouse osteosarcoma cells, early-passage culture from an engineered mouse model of fibroblastic bone tumour
- Reagents: siRNA pool against mouse genes, 40 nM
- Time to read-out: about 120 h (48 h before drug, then 72 h with drug)
- Conditions: doxorubicin 100 nM for 72 h, roughly 30-40% inhibitory dose
- Measured: 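Luminescent ATP signal taken as viability with or without 100 nM doxorubicin for 72 h; mean of two wells set against non-targeting siRNA and turned into robust z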
- Direction: viability z-score with doxorubicin: higher = more viable cells under doxorubicin; viability z-score without drug: higher = more viable cells with knock-down alone
- Call rule: 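Called active if knock-down leaves viability unchanged without drug (z within -2 to 2) but lowers it with doxorubicin (z at or under -2)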

| gene symbol | pool no. | combined z-score class | viability z-score with doxorubicin | viability z-score without drug |
| --- | --- | --- | --- | --- |
| Prex1 | 1 | no change with or without drug | -0.45 | 0.51 |
| Pin1 | 1 | no change with or without drug | -0.45 | -0.17 |
| Tmem97 | 1 | high cell count without drug only | -0.45 | 2.19 |
| Ftl1 | 1 | no change with or without drug | -0.11 | 0.17 |
| Kat2b | 1 | no change with or without drug | 0.45 | 0.84 |
| Cutc | 1 | no change with or without drug | 0.45 | 0.84 |
| Klhl20 | 1 | no change with or without drug | 0.67 | 0.51 |
| Snrnp35 | 1 | no change with or without drug | -1.91 | -1.85 |
| Wiz | 1 | no change with or without drug | -1.35 | 0.51 |
| Nudt5 | 1 | no change with or without drug | 1.24 | -1.85 |
| Hmmr | 1 | no change with or without drug | -0.67 | -0.84 |
| Gm11545 | 1 | no change with or without drug | 0.9 | -0.17 |
| Pde4dip | 1 | no change with or without drug | 0.45 | 0.34 |
| Pde4dip | 2 | no change with or without drug | -0.9 | 0.84 |
| Pde4dip | 3 | no change with or without drug | 0 | 1.52 |
| Cpne3 | 1 | no change with or without drug | -0.22 | -0.51 |
| Or5d36 | 1 | no change with or without drug | 0 | -0.17 |
| Taf9 | 1 | no change with or without drug | 0.22 | 0.67 |
| Taf9 | 2 | no change with or without drug | -1.12 | -1.01 |
| Nmt1 | 1 | no change with or without drug | 0.11 | -0.51 |
| L3mbtl2 | 1 | no change with or without drug | -1.57 | 0.51 |
| Cstad | 1 | no change with or without drug | -1.46 | 0 |
| Litaf | 1 | low cell count with doxorubicin only (active) | -2.25 | -1.52 |
| Dgkq | 1 | no change with or without drug | -0.22 | -0.17 |
| Acot7 | 1 | high cell count without drug only | 1.57 | 3.04 |
| Ofcc1 | 1 | no change with or without drug | 1.24 | -0.84 |
| Cyp3a41a | 1 | no change with or without drug | 0.79 | 0.34 |
| Prb1a | 1 | no change with or without drug | 1.01 | 0.84 |
| Slc35h1 | 1 | no change with or without drug | -1.12 | 0.51 |
| Ap5z1 | 1 | low cell count with doxorubicin only (active) | -4.27 | -1.52 |
| 4930599N23Rik | 1 | no change with or without drug | -0.9 | -1.18 |

Reprinted from above, 5 entries:
| gene symbol | pool no. | combined z-score class | viability z-score with doxorubicin | viability z-score without drug |
| --- | --- | --- | --- | --- |
| Litaf | 1 | low cell count with doxorubicin only (active) | -2.25 | -1.52 |
| Dgkq | 1 | no change with or without drug | -0.22 | -0.17 |
| Acot7 | 1 | high cell count without drug only | 1.57 | 3.04 |
| Ofcc1 | 1 | no change with or without drug | 1.24 | -0.84 |
| Cyp3a41a | 1 | no change with or without drug | 0.79 | 0.34 |

The listing continues:
| gene symbol | pool no. | combined z-score class | viability z-score with doxorubicin | viability z-score without drug |
| --- | --- | --- | --- | --- |
| Kctd9 | 1 | no change with or without drug | -0.9 | -0.51 |
| Rpp30 | 1 | no change with or without drug | -0.45 | -0.51 |
| 2310067E19Rik | 1 | no change with or without drug | 0.45 | -0.17 |
| Ppp1r1b | 1 | no change with or without drug | 1.35 | 0.67 |
| Fgfbp3 | 1 | no change with or without drug | 0.67 | 0.67 |
| Drc4 | 1 | no change with or without drug | 0 | -1.85 |
| Ctss | 1 | no change with or without drug | -1.35 | -1.85 |
| Trmt2a | 1 | no change with or without drug | 0 | -1.35 |
| Xrcc5 | 1 | no change with or without drug | 0.67 | 0.51 |
| Fam13c | 1 | low cell count with doxorubicin only (active) | -2.92 | 0.17 |
| Znrf2 | 1 | no change with or without drug | 0.34 | 1.18 |
| Or5as1 | 1 | no change with or without drug | 1.01 | 1.01 |
| Or51b4 | 1 | no change with or without drug | -1.35 | -0.51 |
| Bcl2l2 | 1 | no change with or without drug | -1.8 | -0.84 |
| Slc35a3 | 1 | no change with or without drug | -1.8 | -0.67 |
| Srfbp1 | 1 | no change with or without drug | -1.12 | -0.34 |
| Fgfr2 | 1 | no change with or without drug | -0.45 | -1.01 |
| Fnta | 1 | no change with or without drug | -1.12 | 0.84 |
| Dnajc11 | 1 | no change with or without drug | -0.56 | 0.17 |
